Measured values from patent CN108635579A.
Substitutions are numbered along the chain they refer to. Results are given in words; binding and its absence hold for the method and conditions named. Some entries that bind do so weakly or less than the wild type. Blank lines part the entries; values can stand above or below the binder they belong to.

By UniProt entry, the sequences of proteins in these tests, tags left out. Residues count along the entry.
UniProt P09038, residues 143-288: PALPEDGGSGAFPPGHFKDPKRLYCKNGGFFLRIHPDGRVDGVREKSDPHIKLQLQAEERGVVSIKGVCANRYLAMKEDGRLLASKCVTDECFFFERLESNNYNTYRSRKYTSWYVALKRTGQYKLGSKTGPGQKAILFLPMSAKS
UniProt P02769, residues 25-607: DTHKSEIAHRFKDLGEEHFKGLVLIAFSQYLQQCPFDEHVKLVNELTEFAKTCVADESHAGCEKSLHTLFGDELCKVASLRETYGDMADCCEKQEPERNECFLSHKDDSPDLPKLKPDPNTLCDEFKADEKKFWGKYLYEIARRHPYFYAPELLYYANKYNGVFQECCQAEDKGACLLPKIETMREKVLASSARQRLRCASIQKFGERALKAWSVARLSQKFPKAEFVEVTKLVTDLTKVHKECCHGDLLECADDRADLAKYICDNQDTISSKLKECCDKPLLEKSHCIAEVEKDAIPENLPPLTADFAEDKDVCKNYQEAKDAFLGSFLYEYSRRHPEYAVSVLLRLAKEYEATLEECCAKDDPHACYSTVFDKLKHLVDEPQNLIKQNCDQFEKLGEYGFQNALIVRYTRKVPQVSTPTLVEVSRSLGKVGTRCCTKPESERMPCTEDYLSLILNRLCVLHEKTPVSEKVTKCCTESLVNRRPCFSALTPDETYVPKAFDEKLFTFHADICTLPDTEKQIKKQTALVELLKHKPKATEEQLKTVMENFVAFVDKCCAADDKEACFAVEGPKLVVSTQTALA

Experiments:
[1] = target: 重组人碱性成纤维细胞生长因子(bFGF) (human) (UniProt P09038); assay: ELISA, antigen coated 50 ng/well, nanobody 100 ng/well, anti-Flag detection
BSA (bovine) = BSA (bovine) (UniProt P02769); assay: as above
[2] = target: 重组人碱性成纤维细胞生长因子(bFGF) (human) (UniProt P09038); assay: competition ELISA, FGFR2 varied 0-1 μg against 100 ng nanobody on 50 ng coated bFGF

binding [1]: binds | binding (BSA (bovine)): binds
B1: 抗bFGF纳米抗体 Nb6 (VHH)
VHH: LQESGGDLVQPGGSLRLSCEVSGSNFSINDMGWYRQAPGKRREVVAGISSVGRTMYGDPVKGRFTISRDNAKNMVYLQMNRLKPEDTAVYYCHLYGDYRGTGFWGKGTQVTVSS

binding [2]: binds | binding [1]: binds | binding (BSA (bovine)): binds
B2: 抗bFGF纳米抗体 Nb2 (VHH)
VHH: B1 VHH with T54A, G57A, H93Y

binding [1]: binds | binding (BSA (bovine)): binds
B3: 抗bFGF纳米抗体 Nb3 (VHH)
VHH: B1 VHH with G57A

binding [1]: binds | binding (BSA (bovine)): binds
B4: 抗bFGF纳米抗体 Nb1 (VHH)
VHH: B1 VHH with I28N, R41Q, P84A, E85K

binding [1]: binds | binding (BSA (bovine)): binds
B5: 抗bFGF纳米抗体 Nb5 (VHH)
VHH: LQESGGGLVQAGGSLRLSCAASGRTFSSGAMGWFRQAPGKEPEFVATITWDGGTTYYADSVKGRYTISRDNAKNTVYLQMNDLKPEDTAVYSCAARSYSEAYYLIGSSDYNYWGQGTQVTVSS
